Measurements reported in publication PMC5451165.
Results are given in words; binding and its absence hold for the method and conditions named. In cells and extracts the contact can be indirect. Some results given as binding are weak or reduced against the parent protein; the word gives no strength.

Sequences of proteins named here, by UniProt entry; tags and fusion partners are left off.
UniProt P62993: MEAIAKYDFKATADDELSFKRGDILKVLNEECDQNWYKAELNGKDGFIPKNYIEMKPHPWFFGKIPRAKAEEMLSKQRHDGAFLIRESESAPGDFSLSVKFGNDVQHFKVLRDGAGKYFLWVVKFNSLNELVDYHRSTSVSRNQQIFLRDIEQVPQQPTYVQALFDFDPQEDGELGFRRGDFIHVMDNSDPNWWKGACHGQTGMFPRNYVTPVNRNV

Biological target: Growth factor receptor bound protein 2 (Grb2), endogenous in SHSY-5Y cells (human (endogenous in SHSY-5Y)) (UniProt P62993)
Assay: co-IP; IP for Grb2 from cell lysate, blot with anti-NOX4 (reverse: IP for NOX4, blot with anti-Grb2); cells under control (GFP, DMSO, DsRed), AD-inducing (AICD, Aβ, DsRed), reversal (AICD, Aβ, Grb2-DsRed) and Grb2 knock-down (U6-Grb2) conditions

binding: binds
B1: NOX4, endogenous in SHSY-5Y cells (protein, UniProt Q9NPH5 1-578)
chain: MAVSWRSWLANEGVKHLCLFIWLSMNVLLFWKTFLLYNQGPEYHYLHQMLGLGLCLSRASASVLNLNCSLILLPMCRTLLAYLRGSQKVPSRRTRRLLDKSRTFHITCGVTICIFSGVHVAAHLVNALNFSVNYSEDFVELNAARYRDEDPRKLLFTTVPGLTGVCMVVVLFLMITASTYAIRVSNYDIFWYTHNLFFVFYMLLTLHVSGGLLKYQTNLDTHPPGCISLNRTSSQNISLPEYFSEHFHEPFPEGFSKPAEFTQHKFVKICMEEPRFQANFPQTWLWISGPLCLYCAERLYRYIRSNKPVTIISVMSHPSDVMEIRMVKENFKARPGQYITLHCPSVSALENHPFTLTMCPTETKATFGVHLKIVGDWTERFRDLLLPPSSQDSEILPFIQSRNYPKLYIDGPFGSPFEESLNYEVSLCVAGGIGVTPFASILNTLLDDWKPYKLRRLYFIWVCRDIQSFRWFADLLCMLHNKFWQENRPDYVNIQLYLSQTDGIQKIIGEKYHALNSRLFIGRPRWKLLFDEIAKYNRGKTVGVFCCGPNSLSKTLHKLSNQNNSYGTRFEYNKESFS
